Source: patent US20240226223A1, “COMPOSITION FOR PREVENTING, IMPROVING, OR TREATING MUSCLE LOSS COMPRISING GREEN TEA PEPTIDE COMPOSITION” (AMOREPACIFIC CORPORATION, priority 2023, published 2024)
For at least one compound, name, drawing or mass did not settle the structure.

Columns and labels:
Format in all cases: cell-based, mouse
Conditions in all cases: DEX (10 mM) and GTP at 10, 50, and 100 mg/ml for 12 hours, FIGS. 2A to 2C
[1] = system: atrogin1; experiment: Muscle loss inducing-marker expression (atrogin1) in DEX-treated differentiated C2C12 muscle cells, gene expression from cDNA
[2] = system: MuRF-1; experiment: Muscle loss inducing-marker expression (MuRF-1) in DEX-treated differentiated C2C12 muscle cells, gene expression from cDNA
[3] = system: FoXO3; experiment: Muscle loss inducing-marker expression (FoXO3) in DEX-treated differentiated C2C12 muscle cells, gene expression from cDNA

C[C@@H]1C[C@H]2[C@@H]3CCC4=CC(=O)C=C[C@]4(C)[C@@]3(F)[C@@H](O)C[C@]2(C)[C@@]1(O)C(=O)CO [DEX, dexamethasone]
increased simultaneously: expression of atrogin1 (muscle loss inducing-marker) [1] | expression of MuRF-1 (muscle loss inducing-marker) [2] | expression of FoXO3 (muscle loss inducing-marker) [3]
